For the experiment, the target named is T1, murine/mouse full length CXCR6 (chemokine receptor 6), expressed on transduced murine CD8+ T cells (murine/mouse) (UniProt Q9EQ16).
T1 sequence: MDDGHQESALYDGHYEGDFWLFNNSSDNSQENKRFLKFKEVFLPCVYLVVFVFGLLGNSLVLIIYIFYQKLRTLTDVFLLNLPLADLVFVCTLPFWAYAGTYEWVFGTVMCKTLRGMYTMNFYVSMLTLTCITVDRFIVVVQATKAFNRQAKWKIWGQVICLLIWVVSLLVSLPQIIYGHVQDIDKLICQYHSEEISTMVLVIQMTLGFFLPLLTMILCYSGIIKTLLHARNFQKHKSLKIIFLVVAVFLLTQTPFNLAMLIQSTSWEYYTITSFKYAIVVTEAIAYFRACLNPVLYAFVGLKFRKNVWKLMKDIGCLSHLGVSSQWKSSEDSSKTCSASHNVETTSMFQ
As to the kind of experiment: cell adhesion assay: calcein-stained CXCR6-transduced CD8+ T cells on nickel plates coated with 9 pmol His-tagged CXCL16 or BSA, with or without anti-mouse CXCL16 neutralizing antibody; fluorescence of adherent cells.

These are yes or no findings as the source states them, for the method shown. Some results given as binding are weak or reduced against the parent protein; the word gives no strength. Tags and fused reporters may be left off the sequences shown.

B1: His-tagged CXCL16 (Cat. Number 50142-M08H, SinoBiological, Peking, China) (ligand, UniProt Q8BSU2 27-201, looked up, not shown: small tags and cut ends)
chain: NQGSVAGSCSCDRTISSGTQIPQGTLDHIRKYLKAFHRCPFFIRFQLQSKSVCGGSQDQWVRELVDCFERKECGTGHGKSFHHQKHLPQASTQTPEAAEGTPSDTSTPAHSQSTQHSTLPSGALSLNKEHTQPWEMTTLPSGYGLEARPEAEANEKQQDDRQQEAPGAGASTPAW
Turning to B1, the binding result is listed as “binds”.

These data come from patent US20180256645A1.
